# Reference: PubChem BioAssay AID1347075 (National Center for Advancing Translational Sciences (NCATS), 2019)
# “And” between values parts separate entries of the source, which are not always exact repeats. Equal entries are not always repeated. Hit rate of the full screen: of about 400,000 compounds, about 5,500 (1.4%) were called active. This list was built around the results that the source calls inconclusive (neither active nor inactive); the mix of calls is not that of the screen. Calls come from the whole dose curve; as a rule, active = well fitted cell-killing curve with a large enough effect; inconclusive = small, poorly fitted or top-dose-only effect, or effect the other way; inactive = flat fitted curve, though single readings scatter. Potencies of inconclusive entries are doubtful fits and often do not repeat.
# Assay: qHTS assay for MDR1-selective chemotherapeutics: Primary screen using the parental adenocarcinoma cell KB-3-1; note: nearly all actives have a fitted effect of over 60% in size
# Details: KB-3-1 viability, CellTiter-Glo ATP luminescence, 72 h; activity change, negative = cytotoxic: at 46.1 µM (top of the series)
# How it was run: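 KB-3-1 cells, DMEM (no phenol red) + 10% FBS; compound by pin transfer, 72 h, 37 °C. Readout: CellTiter-Glo luminescence after 10 min. Data normalized, curve-fitted.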
# % is set by controls: 0 for no effect and ±100 for the full control effect; potency is the fitted concentration of half-maximal effect.
SMILES,Potency,"activity change, negative = cytotoxic"
CCCCOP(=O)(c1ccc(N(C)C)cc1)C(O)c1ccc(OC)c(OC)c1 (stereo not given),"inconclusive: 23.1 µM [rising, single point]",–
COc1cc(OC)c(NC(=O)c2cc3ccccc3cc2O)cc1Cl,"inconclusive: 29.1 µM [cytotoxic, single point]",–
COc1ccc(-n2ncc(C(=O)N3CCN(c4ncccn4)CC3)c2C2CCN(C(=O)OC(C)(C)C)CC2)cc1,inactive,–
CC1CCCCN1S(=O)(=O)c1ccc(C(=O)Nc2ccccc2-c2nc3ccccc3[nH]2)cc1 (stereo not given),"inconclusive: 18.4 µM [cytotoxic, single point]",–
Cc1ccc(N2CC(C(=O)Nc3nnc(SCC(=O)Nc4nc(C)cs4)s3)CC2=O)cc1 (stereo not given),"inconclusive: 9.2 µM [rising, partial curve]",–
Cc1cccc(C(O)c2ncc(-c3ccccc3F)[nH]2)c1C (stereo not given),inactive,–
CC[N+](CC)(CCO)CCCN1C(=O)C2CC=C(Cl)CC2C1=O (stereo not given),inactive,–
CC(C)(C)OC(=O)N1CCC(c2c(C(=O)NCCCN3CCc4ccccc4C3)cnn2-c2ccccc2)CC1,inactive,–
CC(C)(C)C1CCc2c(sc(NC(=O)C3CCCO3)c2C(N)=O)C1 (stereo not given),inactive,–
CC(C)[C@H](NC(=O)OC(C)(C)C)c1cc(C(=O)NCCc2c[nH]c3ccccc23)c(N)s1,inactive,–
NC(=O)c1ccccc1OCC(=O)O,inactive,–
O=C(Nc1ccc2c(c1)CCCN2C(=O)c1cccs1)c1c(F)cccc1F,"inconclusive: 32.6 µM [cytotoxic, partial curve, poor fit] and inconclusive: 29.1 µM [cytotoxic, single point]",–
COc1cc(NC(=O)N2CCc3nc(Nc4cc(Cl)cc(Cl)c4)ncc3C2)cc(OC)c1OC,"inconclusive: 29.1 µM [cytotoxic, single point]",–
O=S(=O)(Nc1cccc2cccnc12)c1ccccc1,"inconclusive: 29.1 µM [cytotoxic, single point]",–
Nc1c(N=Nc2ccccc2F)c(=O)[nH]n1-c1ccccc1,inactive,–
NC(=O)CSCc1c(Cl)cccc1Cl,"inconclusive: 16.4 µM [rising, single point]",–
CCOC(=O)c1ccccc1OCc1cc(/C=N/NC(=O)c2ccncc2)ccc1OC,inactive,–
CC(C)c1nc(SCC(=O)N2CC(=O)Nc3ccccc32)c2ccccc2n1,"inconclusive: 29.1 µM [cytotoxic, single point]",–
COc1ccc(OC)c(CCNC(=O)C2CCN(c3ncnc4c3nc3n4CCCCC3)CC2)c1,inactive,–
O=[N+]([O-])c1ccccc1CNC1CCCCCC1,inactive,–
CCOC(=O)c1cnn(-c2ccc(NS(=O)(=O)c3ccc(Cl)cc3)cc2)c1C(F)(F)F,inactive,–
COc1cccc(/C=C/C(=O)c2cccc([N+](=O)[O-])c2)c1,"inconclusive: 23.1 µM [rising, single point]",–
Cc1ccc(OCCNC(=O)/C=C/c2ccc([N+](=O)[O-])cc2)cc1C,–,inconclusive: 18.3%

# Some of these compounds in order of heavy-atom count, ascending:
SMILES,Potency,"activity change, negative = cytotoxic"
NC(=O)CSCc1c(Cl)cccc1Cl,"inconclusive: 16.4 µM [rising, single point]",–
CCOC(=O)c1ccccc1OCc1cc(/C=N/NC(=O)c2ccncc2)ccc1OC,inactive,–
CC1CCCCN1S(=O)(=O)c1ccc(C(=O)Nc2ccccc2-c2nc3ccccc3[nH]2)cc1 (stereo not given),"inconclusive: 18.4 µM [cytotoxic, single point]",–

# Carrying on:

SMILES,Potency,"activity change, negative = cytotoxic"
Cc1ccc2[nH]c3c(c2c1)CCNC3=O,"inconclusive: 13 µM [cytotoxic, partial curve]",–
Nc1c(Cl)ncnc1NCCc1ccc(O)cc1,"inconclusive: 2.91 µM [cytotoxic, partial curve, poor fit]",–
CCOC(=O)c1ccc(NC(=O)CSc2nnc(CNC(=O)c3ccc(OC)cc3)n2CC)cc1,inactive,–
CC(C)(C)NC(=S)NNC(=O)c1cccc(Br)c1,"inconclusive: 16.4 µM [cytotoxic, single point]",–
CCOC(=O)c1sc(NC(=O)c2ccc(S(=O)(=O)N3CCCCCC3)cc2)nc1-c1ccccc1,"inconclusive: 23.1 µM [cytotoxic, single point]",–
COc1ccc(N2CCN(S(=O)(=O)c3ccc4c(c3)CCCN4C(C)=O)CC2)cc1,inactive,–
COc1cc2c(cc1OC)C(COc1ccc(C(C)C)cc1)N(C(=O)c1ccc(S(=O)(=O)N3CCCC3)cc1)CC2 (stereo not given),inactive,–
COc1cc(OC)c(OC)cc1/C=N/NC(=O)CC1C(=O)NN=C1C (stereo not given),inactive,–
Cc1ccc(C)c(CN2C(=O)c3ccccc3S(=O)c3ccc(C(=O)N4CCN(c5ccccc5F)CC4)cc32)c1 (stereo not given),"inconclusive: 6.51 µM [cytotoxic, full curve]",–
Cc1cc([N+](=O)[O-])ccc1NC(=O)C(C)N1CCN(c2ccccn2)CC1 (stereo not given),inactive,–
CCCN1C(=O)c2ccccc2NC1c1ccc(OC)c(COc2cccc(C)c2C)c1 (stereo not given),"inconclusive: 18.4 µM [cytotoxic, partial curve]",–
CN(C)c1ccc(/C=N/NC(=O)C[n+]2ccccc2)cc1,"inconclusive: 20.6 µM [rising, single point]",–
C[C@@H]1CCCCO[C@H](CN(C)C(=O)NC2CCCCC2)[C@@H](C)CN([C@H](C)CO)C(=O)c2cc(NC(=O)c3ccccc3)ccc2O1,inactive,–
CCCCN1C(=O)/C(=C2/Sc3ccccc3N2C)S/C1=N\c1ncn[nH]1,"inconclusive: 29.1 µM [cytotoxic, single point]",–
COc1cc(C2CC(=O)N(Cc3ccc(F)cc3)c3ccccc3S2)cc(OC)c1OC (stereo not given),"inconclusive: 0.082 µM [cytotoxic, single point]",–
Cc1cc(N2CCN(C)CC2)nc2ccc(NC(=S)N3CCC4(CC3)OCCO4)cc12,–,inconclusive: 9.2%
CCCNC(=O)C(Cc1ccc(Br)cc1)NC(=O)c1ccc(C#N)cc1 (stereo not given),"inconclusive: 9.2 µM [rising, partial curve, poor fit]",–
O=C1c2ccccc2OC2(C=Cc3ccccc3O2)N1Cc1ccccc1 (stereo not given),"inconclusive: 3.66 µM [cytotoxic, full curve]",–
COC(=O)c1ccccc1NC(=O)c1ccc2nc(Cc3ccccc3)oc2c1,inactive,–
COCCNc1nc(NCc2cccc(OC)c2)c2sc(-c3ccccc3)cc2n1,"inconclusive: 29.1 µM [cytotoxic, single point]",–
CC(=O)N1CCOCC1c1cc(C(=O)Nc2ccccc2)no1 (stereo not given),inactive,–
CC(=O)c1ccc(NC(=O)C(C)n2nc(-c3ccccc3)c3cc(Cl)ccc32)cc1 (stereo not given),"inconclusive: 29.1 µM [cytotoxic, single point]",–
